In the test the target is low density lipoprotein (LDL) (UniProt P04114). Nature of the test: SPR, immobilized LDL, ALK1 ectodomain with equimolar BMP9. (SPR reads the build-up and loss of mass on a sensor chip optically.)

The chains behind the UniProt entries cited, without tags or fusion partners. Where a name states a change or a piece, a line headed by the entry shows the natural chain unless it says otherwise. Residues count along the entry.
UniProt P04114, residues 28-4563: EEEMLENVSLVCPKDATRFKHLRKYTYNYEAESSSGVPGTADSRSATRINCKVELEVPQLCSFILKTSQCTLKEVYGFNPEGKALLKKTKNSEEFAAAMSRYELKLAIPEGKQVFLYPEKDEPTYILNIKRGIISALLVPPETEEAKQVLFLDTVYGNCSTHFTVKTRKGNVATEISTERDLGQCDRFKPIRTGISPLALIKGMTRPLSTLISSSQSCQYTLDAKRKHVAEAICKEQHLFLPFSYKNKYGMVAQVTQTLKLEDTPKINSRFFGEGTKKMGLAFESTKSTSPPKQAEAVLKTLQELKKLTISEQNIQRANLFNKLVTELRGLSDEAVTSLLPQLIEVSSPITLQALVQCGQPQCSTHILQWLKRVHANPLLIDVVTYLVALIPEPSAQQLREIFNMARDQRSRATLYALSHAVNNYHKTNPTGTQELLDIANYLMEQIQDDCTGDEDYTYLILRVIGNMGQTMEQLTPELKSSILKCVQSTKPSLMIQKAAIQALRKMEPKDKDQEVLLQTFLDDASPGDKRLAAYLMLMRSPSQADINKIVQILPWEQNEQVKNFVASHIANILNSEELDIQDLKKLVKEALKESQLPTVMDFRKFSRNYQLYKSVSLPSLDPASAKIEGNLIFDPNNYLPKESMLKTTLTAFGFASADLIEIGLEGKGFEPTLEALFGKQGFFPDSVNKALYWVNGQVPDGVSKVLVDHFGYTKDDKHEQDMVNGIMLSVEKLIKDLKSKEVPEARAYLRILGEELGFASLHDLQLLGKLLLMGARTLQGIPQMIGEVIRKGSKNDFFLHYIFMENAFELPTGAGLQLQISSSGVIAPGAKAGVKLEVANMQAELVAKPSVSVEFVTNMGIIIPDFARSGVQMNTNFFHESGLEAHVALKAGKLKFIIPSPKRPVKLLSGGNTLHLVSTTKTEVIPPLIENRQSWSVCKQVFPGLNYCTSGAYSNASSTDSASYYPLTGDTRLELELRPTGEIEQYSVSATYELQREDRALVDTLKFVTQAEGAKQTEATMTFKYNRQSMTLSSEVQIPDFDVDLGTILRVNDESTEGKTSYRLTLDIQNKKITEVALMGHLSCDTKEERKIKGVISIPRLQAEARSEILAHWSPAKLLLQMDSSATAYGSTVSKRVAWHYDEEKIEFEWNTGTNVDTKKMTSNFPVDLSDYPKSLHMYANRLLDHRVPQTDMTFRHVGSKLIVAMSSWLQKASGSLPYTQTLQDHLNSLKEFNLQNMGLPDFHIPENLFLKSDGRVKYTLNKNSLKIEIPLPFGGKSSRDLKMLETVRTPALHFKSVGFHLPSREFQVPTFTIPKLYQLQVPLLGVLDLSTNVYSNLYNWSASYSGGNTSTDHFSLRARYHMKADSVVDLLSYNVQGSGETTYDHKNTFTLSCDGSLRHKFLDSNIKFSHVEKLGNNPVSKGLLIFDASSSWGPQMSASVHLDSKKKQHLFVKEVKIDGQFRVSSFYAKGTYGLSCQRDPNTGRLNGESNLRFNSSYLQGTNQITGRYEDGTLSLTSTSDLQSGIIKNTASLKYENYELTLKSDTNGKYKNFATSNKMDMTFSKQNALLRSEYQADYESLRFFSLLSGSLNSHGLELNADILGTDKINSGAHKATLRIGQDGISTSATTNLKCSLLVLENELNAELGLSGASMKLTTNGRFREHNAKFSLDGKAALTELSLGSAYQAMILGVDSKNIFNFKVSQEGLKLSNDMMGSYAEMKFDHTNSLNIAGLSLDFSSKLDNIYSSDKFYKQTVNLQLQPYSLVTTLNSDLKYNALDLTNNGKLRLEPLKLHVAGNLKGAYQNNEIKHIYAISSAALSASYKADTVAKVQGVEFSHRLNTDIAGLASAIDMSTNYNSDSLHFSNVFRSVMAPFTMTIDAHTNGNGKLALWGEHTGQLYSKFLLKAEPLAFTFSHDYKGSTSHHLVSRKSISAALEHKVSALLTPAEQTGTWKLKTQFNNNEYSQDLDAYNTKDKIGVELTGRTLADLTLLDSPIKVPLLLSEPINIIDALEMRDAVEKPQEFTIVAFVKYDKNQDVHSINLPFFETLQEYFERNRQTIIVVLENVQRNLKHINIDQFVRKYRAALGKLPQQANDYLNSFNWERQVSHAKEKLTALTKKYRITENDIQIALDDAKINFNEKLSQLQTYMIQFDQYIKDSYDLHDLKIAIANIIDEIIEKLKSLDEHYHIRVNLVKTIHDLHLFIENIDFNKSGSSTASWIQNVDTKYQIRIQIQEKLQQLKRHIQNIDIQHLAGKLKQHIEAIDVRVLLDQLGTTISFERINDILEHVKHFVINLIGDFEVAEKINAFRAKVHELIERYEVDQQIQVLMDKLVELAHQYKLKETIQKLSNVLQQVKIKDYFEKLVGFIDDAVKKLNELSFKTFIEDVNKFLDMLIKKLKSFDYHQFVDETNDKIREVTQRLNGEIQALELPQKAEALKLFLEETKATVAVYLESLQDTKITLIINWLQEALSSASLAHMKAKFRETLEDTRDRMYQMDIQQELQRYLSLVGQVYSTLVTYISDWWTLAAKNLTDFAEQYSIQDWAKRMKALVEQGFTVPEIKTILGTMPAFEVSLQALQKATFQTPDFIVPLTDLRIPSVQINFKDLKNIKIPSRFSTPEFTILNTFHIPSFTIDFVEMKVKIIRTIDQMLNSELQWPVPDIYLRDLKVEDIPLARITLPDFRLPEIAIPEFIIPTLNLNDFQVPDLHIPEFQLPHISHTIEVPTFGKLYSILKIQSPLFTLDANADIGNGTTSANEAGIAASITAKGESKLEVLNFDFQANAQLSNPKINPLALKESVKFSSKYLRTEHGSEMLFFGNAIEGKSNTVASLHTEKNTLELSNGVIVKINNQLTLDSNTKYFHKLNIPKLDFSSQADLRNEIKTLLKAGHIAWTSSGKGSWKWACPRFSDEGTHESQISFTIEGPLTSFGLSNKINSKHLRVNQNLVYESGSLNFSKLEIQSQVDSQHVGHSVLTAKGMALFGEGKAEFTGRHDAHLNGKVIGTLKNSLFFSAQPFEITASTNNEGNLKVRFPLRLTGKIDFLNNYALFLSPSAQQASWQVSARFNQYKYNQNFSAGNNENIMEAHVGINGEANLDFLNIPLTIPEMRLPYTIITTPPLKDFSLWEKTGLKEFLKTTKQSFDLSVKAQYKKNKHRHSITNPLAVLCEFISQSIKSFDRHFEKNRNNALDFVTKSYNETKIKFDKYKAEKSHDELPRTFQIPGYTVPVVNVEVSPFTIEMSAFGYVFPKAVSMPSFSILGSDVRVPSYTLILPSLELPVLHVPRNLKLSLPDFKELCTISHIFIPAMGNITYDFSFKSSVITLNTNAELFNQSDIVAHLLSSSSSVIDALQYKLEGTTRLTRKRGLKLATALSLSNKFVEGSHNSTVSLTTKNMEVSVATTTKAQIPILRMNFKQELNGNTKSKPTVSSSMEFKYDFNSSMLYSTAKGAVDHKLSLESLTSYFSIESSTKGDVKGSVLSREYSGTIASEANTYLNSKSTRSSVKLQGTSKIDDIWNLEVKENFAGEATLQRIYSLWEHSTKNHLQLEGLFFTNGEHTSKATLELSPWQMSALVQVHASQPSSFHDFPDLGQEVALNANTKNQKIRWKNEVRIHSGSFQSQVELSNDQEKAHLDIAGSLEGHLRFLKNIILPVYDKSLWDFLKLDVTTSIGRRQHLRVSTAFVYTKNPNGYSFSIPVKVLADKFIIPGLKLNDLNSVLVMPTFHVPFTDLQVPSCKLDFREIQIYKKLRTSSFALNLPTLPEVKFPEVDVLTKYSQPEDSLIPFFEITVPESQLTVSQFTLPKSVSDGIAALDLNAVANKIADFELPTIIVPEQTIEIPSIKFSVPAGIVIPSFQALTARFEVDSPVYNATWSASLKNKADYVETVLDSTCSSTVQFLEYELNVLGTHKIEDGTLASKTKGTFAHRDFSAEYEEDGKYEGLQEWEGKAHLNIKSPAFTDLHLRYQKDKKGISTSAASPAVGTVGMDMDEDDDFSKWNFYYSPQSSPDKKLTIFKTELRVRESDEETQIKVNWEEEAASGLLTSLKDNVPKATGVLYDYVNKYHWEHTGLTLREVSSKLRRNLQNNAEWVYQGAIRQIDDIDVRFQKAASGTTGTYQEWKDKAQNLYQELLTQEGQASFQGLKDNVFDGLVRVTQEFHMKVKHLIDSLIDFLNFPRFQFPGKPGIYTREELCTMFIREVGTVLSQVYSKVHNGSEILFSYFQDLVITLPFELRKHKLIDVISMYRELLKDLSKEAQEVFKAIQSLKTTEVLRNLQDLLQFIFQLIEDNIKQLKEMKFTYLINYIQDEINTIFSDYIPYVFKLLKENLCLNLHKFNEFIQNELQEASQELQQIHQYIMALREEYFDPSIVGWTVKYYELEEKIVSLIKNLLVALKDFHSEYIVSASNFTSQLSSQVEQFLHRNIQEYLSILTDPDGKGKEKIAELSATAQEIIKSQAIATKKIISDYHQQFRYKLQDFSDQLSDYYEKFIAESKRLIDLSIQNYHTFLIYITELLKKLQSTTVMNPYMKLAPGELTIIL
UniProt Q9UK05: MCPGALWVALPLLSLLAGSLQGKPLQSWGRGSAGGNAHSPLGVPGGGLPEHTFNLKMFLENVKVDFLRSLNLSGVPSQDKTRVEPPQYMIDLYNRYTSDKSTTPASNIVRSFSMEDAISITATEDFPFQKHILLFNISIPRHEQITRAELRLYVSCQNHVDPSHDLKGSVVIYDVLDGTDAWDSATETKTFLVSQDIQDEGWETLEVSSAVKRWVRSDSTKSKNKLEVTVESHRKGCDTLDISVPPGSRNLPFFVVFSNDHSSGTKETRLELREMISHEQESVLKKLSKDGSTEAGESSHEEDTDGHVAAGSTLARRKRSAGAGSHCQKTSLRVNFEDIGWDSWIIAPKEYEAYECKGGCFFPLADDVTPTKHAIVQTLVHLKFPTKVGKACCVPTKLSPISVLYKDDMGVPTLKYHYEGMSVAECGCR

This note sets out measurements from patent publication US20210403549A1.

These are yes or no findings as the source states them, for the method shown. Some binding calls cover weakened binding; strength is not graded here.

As for “ALK1 precomplexed with BMP9 (from UniProt Q9UK05 320-429)”, the binding result is on record as “binds”.
